# Experimental data: the supplement of paper PMC8256030
# Values joined by “and” are separate entries in the source; they are usually repeats but may differ in a detail not shown here. Equal values may be shown once. Where a name gives a salt, the structure may show the parent alone. The list shows a part of the results. Repeats in this data set agree poorly, so a single value says little.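 HEK293T cells were given each compound shortly before transfection with a reporter in which red mCherry is followed by the SARS-CoV-2 frameshift element and then GFP in the −1 frame, so GFP appears only after frameshifting.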
# System: HEK293T
# Assay: percent viability (nuclei count) relative to control; higher = more viable cells
# Conditions: 10 µM; 24 h
row,Compound,percent viability
1,C1CCC(C(CC2CCCCN2)C2CCCCC2)CC1 (stereo not given) [perhexiline],340%
2,Cc1cnc(C(=O)NCCc2ccc(S(=O)(=O)NC(=O)NC3CCCCC3)cc2)cn1 [glipizide],175% and 311%
3,OC[C@H]1O[C@H](O[C@H]2[C@H](O)[C@@H](O)C(O)O[C@@H]2CO)[C@H](O)[C@@H](O)[C@@H]1O (stereo not given in full),331%
4,CC(=O)Nc1ccc(OC(=O)c2ccccc2OC(C)=O)cc1 [benorilate],128%
5,CCOc1ccc(C(=O)OCCN(CC)CC)cc1 [parethoxycaine],161%
6,COc1cc(Cl)nc(OC)n1,197%
7,CC#CCC(C)[C@H](O)/C=C/[C@@H]1[C@H]2C/C(=C/CCCC(=O)O)C[C@H]2C[C@H]1O (stereo not given in full) [iloprost],195%
8,CCN(CC)C(=O)c1cccnc1 [nikethamide],261%
9,O=C(O)CN(CCN(CC(=O)O)CC(=O)O)CC(=O)O [edetic acid],302%
10,COc1ccc2c(c1OC)C(=O)O[C@@H]2[C@H]1c2c(cc3c(c2OC)OCO3)CCN1C [noscapine],156%
11,CC(O)C(N)C(=O)O (stereo not given),19.9%
12,N=C(N)c1ccc(OCCCCCCOc2ccc(C(=N)N)cc2)cc1 [hexamidine],290%
13,CCCCCCCCCCCCN1CCCCCC1=O [laurocapram],146%
14,CCC1=C(C)CN(C(=O)NCCc2ccc(S(=O)(=O)NC(=O)N[C@H]3CC[C@H](C)CC3)cc2)C1=O [glimepiride],64.6%
15,CCNC(=O)N1CCN(CCCC(c2ccc(F)cc2)c2ccc(F)cc2)CC1 [amperozide],191%
16,CC(C)C(=O)OCC(=O)[C@@]12O[C@H](C3CCCCC3)O[C@@H]1C[C@H]1[C@@H]3CCC4=CC(=O)C=C[C@]4(C)[C@H]3[C@@H](O)C[C@@]12C [Ciclesonide],226%
17,CC1=C(C)C(=O)C(C(CCCCCC(=O)O)c2ccccc2)=C(C)C1=O (stereo not given) [seratrodast],137%
18,O=c1[nH]cnc2c1ncn2[C@H]1CC[C@@H](CO)O1 [didanosine],236%
19,NS(=O)(=O)NCc1ccccc1 [benzylsulfamide],298%
20,COc1ccc(Cl)cc1C(=O)NCCc1ccc(S(=O)(=O)NC(=O)NC2CCCCC2)cc1 [Glyburide],337%

row,Compound,percent viability
1,COCCCOc1ccnc(C[S+]([O-])c2nc3ccccc3[nH]2)c1C (stereo not given) [rabeprazole],144%
2,Cc1onc(-c2ccccc2)c1C(=O)N[C@@H]1C(=O)N2[C@@H]1SC(C)(C)[C@@H]2C(=O)O [Oxacillin],131%
3,O=C(O)Cc1ccc(CCNS(=O)(=O)c2ccc(Cl)cc2)cc1 [daltroban],118%
4,CC/C(=C(\c1ccc(O)cc1)c1ccc(OCCN(C)C)cc1)c1ccccc1 [afimoxifene],222%
5,CCC(NC(C)C)C(O)c1ccc(O)c(O)c1 (stereo not given),213%
6,CNCCC=C1c2ccccc2CCc2ccccc21 [nortriptyline],310%
7,CC(=O)O[C@H]1C[C@@]2(C)[C@@H](C[C@@H](O)[C@H]3[C@@]4(C)CC[C@@H](O)[C@@H](C)[C@@H]4CC[C@@]32C)/C1=C(\CCC=C(C)C)C(=O)O [Fusidic Acid],217%
8,CC(=O)Oc1cccc(C(=O)O)c1OC(C)=O [dipyrocetyl],249%
9,CC1(C)OC(=O)Nc2ccc(Br)cc21 [brofoxine],107%
10,COc1cc([C@@H]2c3cc4c(cc3[C@@H](O[C@@H]3O[C@@H]5CO[C@@H](C)O[C@H]5[C@H](O)[C@H]3O)[C@H]3COC(=O)[C@H]23)OCO4)cc(OC)c1O [etoposide],101%
11,CC(=O)OCC(=O)[C@@]1(O)CC[C@H]2[C@@H]3CCC4=CC(=O)C=C[C@]4(C)[C@H]3[C@@H](O)C[C@@]21C,203%
12,S=C(NCCc1ccccn1)Nc1ccc(Br)cn1 [trovirdine],183%
13,C[C@H]1O[C@@H](O[C@H]2CC[C@@]3(C)[C@H](CC[C@@H]4[C@@H]3C[C@@H](O)[C@]3(C)[C@@H](C5=CC(=O)OC5)CC[C@]43O)C2)C[C@H](O)[C@@H]1O[C@H]1C[C@H](O)[C@H](O[C@H]2C[C@H](O)[C@H](O[C@@H]3O[C@H](CO)[C@@H](O)[C@H](O)[C@H]3O)[C@@H](C)O2)[C@@H](C)O1 [deslanoside],5.41%
14,CCN(CC)Cc1cc(Nc2ccnc3cc(Cl)ccc23)ccc1O,409%
15,CC(=O)Oc1cc(C(F)(F)F)ccc1C(=O)O [triflusal],78.5%
16,CO[C@@]1(NC(=O)C(C(=O)O)c2ccc(O)cc2)C(=O)N2C(C(=O)O)=C(CSc3nnnn3C)CO[C@@H]21 (stereo not given in full),306%
17,C[N+](C)(C)CCOP(=O)(O)OP(=O)([O-])OC[C@H]1O[C@@H](n2ccc(N)nc2=O)[C@H](O)[C@@H]1O [citicoline],86.3%
18,CCC(=O)O[C@]1(C(=O)COC(C)=O)CC[C@H]2[C@@H]3C[C@H](C)C4=CC(=O)C=C[C@]4(C)[C@H]3[C@@H](O)C[C@@]21C [methylprednisolone aceponate],236%
19,C=CCc1ccccc1OCC(O)CNC(C)C (stereo not given) [Alprenolol·HCl],176%
20,O=c1[nH]c2ccccc2n1CCCN1CCN(C(c2ccccc2)c2ccccc2)CC1 [oxatomide],265%

# Reformatted with tabs: entries from further up.
row	Compound	percent viability
5	CCC(NC(C)C)C(O)c1ccc(O)c(O)c1 (stereo not given)	213%
16	CO[C@@]1(NC(=O)C(C(=O)O)c2ccc(O)cc2)C(=O)N2C(C(=O)O)=C(CSc3nnnn3C)CO[C@@H]21 (stereo not given in full)	306%
